Assay results reported in the supplement of paper PMC10849652.
The list shows a part of the results.

By UniProt entry, the sequences of proteins in these tests, tags left out. Where a name states a change or a piece, a line headed by the entry shows the natural chain unless it says otherwise.
UniProt Q9BUE0: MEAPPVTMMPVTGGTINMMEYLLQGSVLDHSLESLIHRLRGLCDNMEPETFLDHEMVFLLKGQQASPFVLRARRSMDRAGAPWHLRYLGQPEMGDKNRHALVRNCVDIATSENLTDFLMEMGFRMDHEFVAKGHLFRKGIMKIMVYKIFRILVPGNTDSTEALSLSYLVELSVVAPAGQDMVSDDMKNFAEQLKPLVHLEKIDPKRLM
UniProt Q14728: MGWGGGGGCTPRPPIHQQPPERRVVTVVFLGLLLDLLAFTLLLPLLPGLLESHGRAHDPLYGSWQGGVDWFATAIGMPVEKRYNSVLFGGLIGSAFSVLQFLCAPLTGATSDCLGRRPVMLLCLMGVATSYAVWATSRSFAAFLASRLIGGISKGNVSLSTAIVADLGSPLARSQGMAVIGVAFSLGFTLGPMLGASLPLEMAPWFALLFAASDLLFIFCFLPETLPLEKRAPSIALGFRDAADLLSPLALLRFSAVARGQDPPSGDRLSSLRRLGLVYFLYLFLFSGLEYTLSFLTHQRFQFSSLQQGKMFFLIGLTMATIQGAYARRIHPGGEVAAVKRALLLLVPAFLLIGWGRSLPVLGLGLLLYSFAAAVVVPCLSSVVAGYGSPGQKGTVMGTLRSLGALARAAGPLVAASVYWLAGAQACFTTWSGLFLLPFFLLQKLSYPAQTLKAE
UniProt Q15528: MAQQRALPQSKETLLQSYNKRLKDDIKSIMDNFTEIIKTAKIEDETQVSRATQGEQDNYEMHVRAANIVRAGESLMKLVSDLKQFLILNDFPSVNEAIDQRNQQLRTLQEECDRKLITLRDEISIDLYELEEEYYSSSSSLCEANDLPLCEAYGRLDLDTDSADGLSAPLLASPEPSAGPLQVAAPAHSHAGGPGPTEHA
UniProt P48163: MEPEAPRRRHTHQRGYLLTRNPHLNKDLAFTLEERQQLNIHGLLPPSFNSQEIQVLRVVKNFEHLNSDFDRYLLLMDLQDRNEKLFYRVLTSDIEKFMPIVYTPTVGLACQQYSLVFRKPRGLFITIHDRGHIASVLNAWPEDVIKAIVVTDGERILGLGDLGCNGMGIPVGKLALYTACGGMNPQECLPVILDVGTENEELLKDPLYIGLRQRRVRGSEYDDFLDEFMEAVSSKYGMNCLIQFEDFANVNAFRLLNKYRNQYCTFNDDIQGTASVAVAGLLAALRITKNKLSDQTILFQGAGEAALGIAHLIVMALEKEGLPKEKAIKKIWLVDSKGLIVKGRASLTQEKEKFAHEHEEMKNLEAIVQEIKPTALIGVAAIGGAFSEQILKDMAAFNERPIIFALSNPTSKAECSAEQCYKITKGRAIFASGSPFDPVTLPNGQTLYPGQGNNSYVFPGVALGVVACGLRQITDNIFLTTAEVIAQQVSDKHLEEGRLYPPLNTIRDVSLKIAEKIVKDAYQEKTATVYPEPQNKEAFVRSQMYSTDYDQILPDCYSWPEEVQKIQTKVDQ
UniProt Q5TF39: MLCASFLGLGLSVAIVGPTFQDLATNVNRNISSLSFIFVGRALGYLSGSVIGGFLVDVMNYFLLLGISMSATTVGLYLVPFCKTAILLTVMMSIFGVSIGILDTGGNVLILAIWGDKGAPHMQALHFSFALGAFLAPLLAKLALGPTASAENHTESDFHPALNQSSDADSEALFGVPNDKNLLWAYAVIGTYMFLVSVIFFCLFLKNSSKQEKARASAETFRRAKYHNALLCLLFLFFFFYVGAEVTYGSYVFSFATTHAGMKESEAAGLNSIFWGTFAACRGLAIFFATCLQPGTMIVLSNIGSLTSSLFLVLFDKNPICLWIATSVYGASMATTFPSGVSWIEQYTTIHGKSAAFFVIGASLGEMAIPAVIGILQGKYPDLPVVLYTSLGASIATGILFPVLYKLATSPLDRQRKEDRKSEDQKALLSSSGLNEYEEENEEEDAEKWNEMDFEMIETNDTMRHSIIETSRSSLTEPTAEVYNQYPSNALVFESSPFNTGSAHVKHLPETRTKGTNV
UniProt Q9BTT4: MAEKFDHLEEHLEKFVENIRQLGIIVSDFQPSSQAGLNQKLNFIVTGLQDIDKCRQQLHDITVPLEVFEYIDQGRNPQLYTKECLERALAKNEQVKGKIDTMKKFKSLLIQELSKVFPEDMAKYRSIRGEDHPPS
UniProt P40926: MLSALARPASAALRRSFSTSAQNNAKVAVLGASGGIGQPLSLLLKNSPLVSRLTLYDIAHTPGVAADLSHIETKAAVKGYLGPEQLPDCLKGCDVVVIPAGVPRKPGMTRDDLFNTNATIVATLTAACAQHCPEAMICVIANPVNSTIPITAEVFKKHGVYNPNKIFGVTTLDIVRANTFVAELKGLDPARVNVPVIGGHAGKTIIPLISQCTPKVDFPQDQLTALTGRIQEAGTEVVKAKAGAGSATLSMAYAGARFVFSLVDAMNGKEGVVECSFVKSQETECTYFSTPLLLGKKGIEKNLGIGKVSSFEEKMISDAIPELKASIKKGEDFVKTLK
UniProt Q71SY5: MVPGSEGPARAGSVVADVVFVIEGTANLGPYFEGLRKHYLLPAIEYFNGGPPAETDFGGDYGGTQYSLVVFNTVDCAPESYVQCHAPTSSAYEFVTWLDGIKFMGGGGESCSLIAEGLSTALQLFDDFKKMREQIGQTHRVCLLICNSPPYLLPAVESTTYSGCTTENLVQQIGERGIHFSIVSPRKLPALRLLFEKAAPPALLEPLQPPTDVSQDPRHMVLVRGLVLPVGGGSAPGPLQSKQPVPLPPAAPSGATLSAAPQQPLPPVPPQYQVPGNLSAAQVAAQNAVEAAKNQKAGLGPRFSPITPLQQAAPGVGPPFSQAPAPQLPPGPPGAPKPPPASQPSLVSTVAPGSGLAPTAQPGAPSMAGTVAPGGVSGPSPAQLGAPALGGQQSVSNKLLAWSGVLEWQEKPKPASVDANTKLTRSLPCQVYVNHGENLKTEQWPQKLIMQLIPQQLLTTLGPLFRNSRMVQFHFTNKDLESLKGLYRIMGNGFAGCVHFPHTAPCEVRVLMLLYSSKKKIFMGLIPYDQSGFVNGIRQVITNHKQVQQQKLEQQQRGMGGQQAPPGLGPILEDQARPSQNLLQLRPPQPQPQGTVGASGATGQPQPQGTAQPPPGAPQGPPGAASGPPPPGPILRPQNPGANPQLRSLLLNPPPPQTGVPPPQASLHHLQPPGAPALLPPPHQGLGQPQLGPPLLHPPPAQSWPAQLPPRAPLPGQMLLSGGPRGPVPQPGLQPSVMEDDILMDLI
UniProt Q6UB28: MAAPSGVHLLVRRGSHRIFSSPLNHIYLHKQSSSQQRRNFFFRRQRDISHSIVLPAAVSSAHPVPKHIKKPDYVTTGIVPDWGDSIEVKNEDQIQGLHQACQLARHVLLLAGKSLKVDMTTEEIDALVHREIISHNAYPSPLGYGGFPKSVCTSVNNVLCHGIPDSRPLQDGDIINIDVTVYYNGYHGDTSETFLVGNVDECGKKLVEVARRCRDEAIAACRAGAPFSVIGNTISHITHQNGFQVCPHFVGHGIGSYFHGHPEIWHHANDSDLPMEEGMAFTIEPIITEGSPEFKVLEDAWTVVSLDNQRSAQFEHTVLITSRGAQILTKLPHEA
UniProt Q86U44, whole entry, looked up: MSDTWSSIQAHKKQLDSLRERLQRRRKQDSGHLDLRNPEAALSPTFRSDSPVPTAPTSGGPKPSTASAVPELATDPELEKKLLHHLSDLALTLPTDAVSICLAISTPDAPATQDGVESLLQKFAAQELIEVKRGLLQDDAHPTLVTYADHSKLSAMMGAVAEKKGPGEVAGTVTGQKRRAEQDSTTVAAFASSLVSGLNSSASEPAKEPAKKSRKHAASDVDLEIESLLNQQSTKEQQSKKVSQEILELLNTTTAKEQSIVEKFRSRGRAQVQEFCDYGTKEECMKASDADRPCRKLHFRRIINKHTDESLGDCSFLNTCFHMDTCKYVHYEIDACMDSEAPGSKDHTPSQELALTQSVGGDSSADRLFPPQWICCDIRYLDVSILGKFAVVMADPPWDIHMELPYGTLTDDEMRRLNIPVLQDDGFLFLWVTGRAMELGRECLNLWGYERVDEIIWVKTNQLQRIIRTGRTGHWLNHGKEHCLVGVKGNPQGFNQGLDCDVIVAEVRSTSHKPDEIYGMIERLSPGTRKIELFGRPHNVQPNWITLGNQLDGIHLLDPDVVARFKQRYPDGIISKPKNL
UniProt Q9Y316: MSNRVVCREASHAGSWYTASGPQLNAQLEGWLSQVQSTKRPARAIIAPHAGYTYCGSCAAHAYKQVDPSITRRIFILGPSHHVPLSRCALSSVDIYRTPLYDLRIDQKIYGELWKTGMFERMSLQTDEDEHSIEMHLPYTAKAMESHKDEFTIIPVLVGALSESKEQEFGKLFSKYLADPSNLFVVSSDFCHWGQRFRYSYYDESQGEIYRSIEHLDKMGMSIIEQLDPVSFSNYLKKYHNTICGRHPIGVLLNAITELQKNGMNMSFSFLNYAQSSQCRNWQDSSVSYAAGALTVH
UniProt P49736, whole entry, looked up: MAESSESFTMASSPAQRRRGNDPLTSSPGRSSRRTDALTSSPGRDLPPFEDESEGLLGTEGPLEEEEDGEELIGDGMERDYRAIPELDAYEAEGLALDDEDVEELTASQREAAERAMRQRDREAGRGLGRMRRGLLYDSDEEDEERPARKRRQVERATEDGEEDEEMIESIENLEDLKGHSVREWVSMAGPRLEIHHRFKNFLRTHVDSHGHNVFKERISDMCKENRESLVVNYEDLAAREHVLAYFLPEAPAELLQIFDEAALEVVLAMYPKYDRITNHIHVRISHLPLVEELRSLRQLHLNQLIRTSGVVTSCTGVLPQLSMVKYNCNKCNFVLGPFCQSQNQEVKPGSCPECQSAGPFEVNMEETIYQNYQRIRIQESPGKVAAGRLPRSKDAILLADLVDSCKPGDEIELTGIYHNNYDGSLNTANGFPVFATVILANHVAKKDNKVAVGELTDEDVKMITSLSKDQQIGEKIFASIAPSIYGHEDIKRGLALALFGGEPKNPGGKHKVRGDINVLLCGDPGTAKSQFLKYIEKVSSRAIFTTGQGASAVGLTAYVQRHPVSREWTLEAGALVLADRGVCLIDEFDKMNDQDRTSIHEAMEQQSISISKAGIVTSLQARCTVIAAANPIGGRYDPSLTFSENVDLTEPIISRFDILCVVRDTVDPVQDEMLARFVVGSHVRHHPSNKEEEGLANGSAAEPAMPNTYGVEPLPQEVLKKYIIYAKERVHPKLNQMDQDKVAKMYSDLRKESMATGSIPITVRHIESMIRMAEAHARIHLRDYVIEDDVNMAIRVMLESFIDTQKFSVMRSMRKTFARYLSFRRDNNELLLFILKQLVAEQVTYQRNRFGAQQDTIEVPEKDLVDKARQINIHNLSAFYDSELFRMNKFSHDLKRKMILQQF
UniProt Q9H3U5: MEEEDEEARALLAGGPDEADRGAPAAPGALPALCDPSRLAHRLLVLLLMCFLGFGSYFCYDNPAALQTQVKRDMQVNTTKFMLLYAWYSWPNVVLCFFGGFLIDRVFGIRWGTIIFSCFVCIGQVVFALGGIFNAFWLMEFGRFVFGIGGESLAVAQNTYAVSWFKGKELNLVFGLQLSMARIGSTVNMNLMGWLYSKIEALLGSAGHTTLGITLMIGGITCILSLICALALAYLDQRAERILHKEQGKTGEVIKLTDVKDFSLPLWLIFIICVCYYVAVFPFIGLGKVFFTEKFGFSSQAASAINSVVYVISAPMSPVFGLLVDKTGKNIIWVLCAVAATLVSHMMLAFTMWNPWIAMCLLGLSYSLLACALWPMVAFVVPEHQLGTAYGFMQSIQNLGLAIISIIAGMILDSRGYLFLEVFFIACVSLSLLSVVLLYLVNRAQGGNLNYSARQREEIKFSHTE
UniProt Q96RQ3: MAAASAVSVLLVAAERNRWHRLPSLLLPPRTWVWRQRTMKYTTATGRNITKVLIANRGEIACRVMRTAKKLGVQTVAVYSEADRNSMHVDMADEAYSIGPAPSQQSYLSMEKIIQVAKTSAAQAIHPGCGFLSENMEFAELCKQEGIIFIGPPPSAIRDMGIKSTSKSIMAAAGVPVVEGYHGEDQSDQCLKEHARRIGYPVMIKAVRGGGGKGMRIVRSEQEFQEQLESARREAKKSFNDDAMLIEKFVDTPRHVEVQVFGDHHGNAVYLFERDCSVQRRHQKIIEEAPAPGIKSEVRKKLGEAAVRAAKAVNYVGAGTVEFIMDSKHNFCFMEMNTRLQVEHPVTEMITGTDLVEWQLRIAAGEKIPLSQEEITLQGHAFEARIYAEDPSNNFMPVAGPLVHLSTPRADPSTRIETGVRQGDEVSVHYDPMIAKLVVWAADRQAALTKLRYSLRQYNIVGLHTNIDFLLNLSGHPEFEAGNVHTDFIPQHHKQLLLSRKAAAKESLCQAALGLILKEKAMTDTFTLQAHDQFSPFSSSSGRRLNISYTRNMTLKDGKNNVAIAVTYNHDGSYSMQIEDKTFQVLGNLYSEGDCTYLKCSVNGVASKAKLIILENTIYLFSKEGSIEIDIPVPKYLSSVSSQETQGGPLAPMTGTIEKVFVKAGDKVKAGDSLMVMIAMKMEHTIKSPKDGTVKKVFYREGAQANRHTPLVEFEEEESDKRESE

Key:
Assay in all cases: log2 fold change, soluble protein after heating vs DMSO (PISA); higher = thermal stabilisation; K562 lysate, 10 uM; active = over 0.2 and 3.5 SD of the protein, either way, in both replicates (recomputed)
lapatinib = compound: CS(=O)(=O)CCNCc1ccc(-c2ccc3ncnc(Nc4ccc(OCc5cccc(F)c5)c(Cl)c4)c3c2)o1 [lapatinib]
How it was run: (§1)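 To prepare the extract, K562 pellets were dounce-homogenised in PBS pH 7.4 with 1 mM MgCl2, giving crude material at 1 mg/mL protein. This was treated with 10 μM compound for 30 min, then heated in aliquots for 3 min over 48°C-58°C before pooling and addition of NP-40 to 0.5% at 4°C. Centrifugation at 21,000xg for 90 min left soluble protein in the supernatant, which TMTpro 16plex LC-MS/MS quantified with equalised channel sums. Results are log-two fold changes in thermal stability compared with solvent controls, from duplicates.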

pictilisib = compound: CS(=O)(=O)N1CCN(Cc2cc3nc(-c4cccc5[nH]ncc45)nc(N4CCOCC4)c3s2)CC1 [pictilisib]
How it was run: as §1

crizotinib = compound: C[C@@H](Oc1cc(-c2cnn(C3CCNCC3)c2)cnc1N)c1c(Cl)ccc(F)c1Cl [crizotinib]
How it was run: as §1

[1] = compound: C[C@H](C1=CC=C(C=C1)C(=O)NC2=C3C=CNC3=NC=C2)N
How it was run: as §1

duvelisib = compound: C[C@H](Nc1ncnc2nc[nH]c12)c1cc2cccc(Cl)c2c(=O)n1-c1ccccc1 [duvelisib]
How it was run: as §1

gandotinib = compound: Cc1cc(Nc2cc(CN3CCOCC3)c3nc(C)c(Cc4ccc(Cl)cc4F)n3n2)n[nH]1 [gandotinib]
How it was run: as §1

tozasertib = compound: Cc1cc(Nc2cc(N3CCN(C)CC3)nc(Sc3ccc(NC(=O)C4CC4)cc3)n2)n[nH]1 [tozasertib]
How it was run: as §1

doramapimod = compound: Cc1ccc(-n2nc(C(C)(C)C)cc2NC(=O)Nc2ccc(OCCN3CCOCC3)c3ccccc23)cc1 [doramapimod]
How it was run: as §1

bafetinib = compound: Cc1ccc(NC(=O)c2ccc(CN3CC[C@H](N(C)C)C3)c(C(F)(F)F)c2)cc1Nc1nccc(-c2cncnc2)n1 [bafetinib]
How it was run: as §1

[2] = compound: Cc1cccc(CC(=O)N2CCc3c2ccc(-c2cn(C)c4ncnc(N)c24)c3F)n1
How it was run: as §1

Target | log2 fold change (lapatinib) | log2 fold change (pictilisib) | log2 fold change (crizotinib) | log2 fold change [1] | log2 fold change (duvelisib) | log2 fold change (gandotinib) | log2 fold change (tozasertib) | log2 fold change (doramapimod) | log2 fold change (bafetinib) | log2 fold change [2]
MED18 (UniProt Q9BUE0) | inactive: 0.03 | inactive: 0.033 | inactive: 0.025 | inactive: 0.129 | inactive: -0.005 | inactive: -0.159 | inactive: 0.01 | inactive: 0.025 | inactive: 0.112 | inactive: -0.113
MFSD10 (UniProt Q14728) | inactive: -0.012 | inactive: -0.058 | inactive: 0.036 | inactive: -0.208 | inactive: -0.01 | inactive: 0.158 | inactive: -0.062 | inactive: -0.013 | inactive: -0.074 | inactive: 0.073
MBOAT7 (UniProt Q96N66) | inactive: -0.096 | inactive: -0.013 | inactive: 0.044 | inactive: -0.133 | inactive: -0.03 | inactive: -0.022 | inactive: -0.03 | inactive: -0.076 | inactive: -0.024 | inactive: 0.11
MED13L (UniProt Q71F56) | inactive: 0.034 | inactive: -0.072 | inactive: -0.039 | inactive: -0.047 | inactive: -0.083 | inactive: -0.005 | inactive: -0.019 | inactive: 0.026 | inactive: -0.061 | inactive: 0.035
MEIS2 (UniProt O14770) | inactive: 0.022 | inactive: -0.107 | inactive: -0.021 | inactive: -0.044 | inactive: -0.013 | inactive: 0.045 | inactive: -0.066 | inactive: 0.017 | inactive: -0.003 | inactive: 0.013
MBD3 (UniProt O95983) | inactive: -0.014 | inactive: -0.022 | inactive: 0.008 | inactive: -0.046 | inactive: 0.015 | inactive: 0.051 | inactive: 0.018 | inactive: -0.063 | inactive: -0.034 | inactive: 0.054
ME3 (UniProt Q16798) | inactive: 0.086 | inactive: 0.001 | inactive: -0.067 | inactive: -0.024 | inactive: 0.137 | inactive: 0.084 | inactive: 0.043 | inactive: 0.042 | inactive: -0.054 | inactive: 0.135
MED22 isoform 2 (UniProt Q15528) | inactive: 0.002 | inactive: 0.013 | inactive: 0.036 | inactive: 0.07 | inactive: 0.016 | inactive: -0.058 | inactive: -0.019 | inactive: 0.015 | inactive: -0.145 | inactive: 0.013
ME1 (UniProt P48163) | inactive: 0.007 | inactive: -0.016 | inactive: 0.008 | inactive: -0.057 | inactive: 0.011 | inactive: 0.039 | inactive: 0.028 | inactive: -0.011 | inactive: -0.025 | inactive: 0.001
MAX (UniProt P61244) | inactive: -0.039 | inactive: 0.075 | inactive: 0.009 | inactive: -0.003 | inactive: 0.001 | inactive: 0.068 | inactive: 0.01 | inactive: -0.053 | inactive: 0.137 | inactive: -0.039
MED14 (UniProt O60244) | inactive: -0.032 | inactive: -0.006 | inactive: -0.016 | inactive: -0.058 | inactive: -0.033 | inactive: -0.016 | inactive: 0.046 | inactive: -0.028 | inactive: -0.036 | inactive: 0.037
MFSD4B (UniProt Q5TF39) | inactive: -0.071 | inactive: 0.204 | inactive: -0.021 | inactive: 0.027 | inactive: 0.02 | inactive: 0.109 | inactive: 0.241 | inactive: -0.096 | inactive: -0.039 | inactive: 0.056
METTL7A (UniProt Q9H8H3) | inactive: 0.023 | inactive: 0.019 | inactive: 0.177 | inactive: -0.019 | inactive: 0.021 | inactive: 0.226 | inactive: -0.081 | inactive: 0.071 | inactive: 0.048 | inactive: 0.019
MED10 (UniProt Q9BTT4) | inactive: 0.107 | inactive: 0.232 | inactive: 0.016 | inactive: -0.024 | inactive: 0.016 | inactive: 0.04 | inactive: -0.057 | inactive: 0.014 | inactive: 0.187 | inactive: 0.055
MESD (UniProt Q14696) | inactive: -0.027 | inactive: -0.031 | inactive: 0.052 | inactive: -0.075 | inactive: 0.029 | inactive: 0.073 | inactive: 0.022 | inactive: 0.018 | inactive: 0.009 | inactive: -0.022
MFN2 (UniProt O95140) | inactive: -0.035 | inactive: 0.015 | inactive: -0.036 | inactive: 0.009 | inactive: 0.015 | inactive: -0.041 | inactive: -0.01 | inactive: 0.058 | inactive: -0.042 | inactive: 0.004
MDH2 (UniProt P40926) | inactive: 0.025 | inactive: -0.004 | inactive: 0.024 | inactive: 0.036 | inactive: -0.002 | inactive: -0.01 | inactive: -0.003 | inactive: 0.022 | inactive: 0.134 | inactive: -0.038
MED13 (UniProt Q9UHV7) | inactive: -0.053 | inactive: -0.069 | inactive: -0.04 | inactive: 0.02 | inactive: -0.005 | inactive: -0.011 | inactive: 0.013 | inactive: -0.002 | inactive: -0.03 | inactive: -0.023
MED25 isoform 3 (UniProt Q71SY5) | inactive: 0.018 | inactive: -0.05 | inactive: -0.05 | inactive: 0.053 | inactive: 0.063 | inactive: -0.095 | inactive: -0.109 | inactive: -0.042 | inactive: -0.023 | inactive: -0.052
MED16 (UniProt Q9Y2X0) | inactive: -0.014 | inactive: -0.154 | inactive: 0.03 | inactive: 0.167 | inactive: -0.027 | active: -0.261 | inactive: 0.012 | inactive: 0.021 | inactive: 0.051 | inactive: -0.065
MATR3 (UniProt P43243) | inactive: 0.002 | inactive: 0.009 | inactive: -0.028 | inactive: -0.136 | inactive: 0.074 | inactive: 0.017 | inactive: -0.011 | inactive: 0.153 | inactive: -0.052 | inactive: 0.07
MEF2C isoform 5 (UniProt Q06413) | inactive: 0.094 | inactive: -0.038 | inactive: -0.007 | inactive: -0.016 | inactive: 0.13 | inactive: 0.086 | inactive: 0.077 | inactive: 0.095 | inactive: -0.066 | inactive: 0.059
METAP1 (UniProt P53582) | inactive: -0.014 | inactive: 0.014 | inactive: 0.002 | inactive: -0.215 | inactive: -0.037 | inactive: 0.065 | inactive: 0.013 | inactive: 0.029 | inactive: -0.026 | inactive: 0.049
METAP1D (UniProt Q6UB28) | inactive: 0.081 | inactive: -0.025 | inactive: -0.103 | inactive: 0.007 | inactive: -0.054 | inactive: -0.006 | inactive: -0.035 | inactive: 0.026 | inactive: -0.025 | inactive: 0.011
METTL3 (UniProt Q86U44) | inactive: -0.005 | inactive: -0.015 | inactive: 0.001 | inactive: -0.017 | inactive: -0.006 | inactive: 0.017 | inactive: 0.032 | inactive: 0.023 | inactive: -0.031 | inactive: -0.014
MEMO1 (UniProt Q9Y316) | inactive: 0.02 | inactive: -0.004 | inactive: -0.011 | inactive: -0.028 | inactive: -0.014 | inactive: -0.006 | inactive: 0.027 | inactive: -0.002 | inactive: 0.039 | inactive: -0.012
MCM3 isoform 2 (UniProt P25205) | inactive: 0.005 | inactive: -0.009 | inactive: 0.015 | inactive: 0.059 | inactive: -0.015 | inactive: -0.025 | inactive: -0.013 | inactive: 0.007 | inactive: 0.025 | inactive: -0.011
MCM2 (UniProt P49736) | inactive: -0.013 | inactive: -0.006 | inactive: -0.037 | inactive: -0.02 | inactive: -0.005 | inactive: -0.047 | inactive: -0.002 | inactive: 0.002 | inactive: -0.037 | inactive: 0.01
MFSD1 isoform 6 (UniProt Q9H3U5) | inactive: 0.006 | inactive: -0.058 | inactive: -0.03 | inactive: -0.098 | inactive: 0.034 | inactive: 0.054 | inactive: 0.059 | inactive: 0.034 | inactive: -0.006 | inactive: 0.012
MCCC1 (UniProt Q96RQ3) | inactive: -0.022 | inactive: -0.038 | inactive: -0.004 | inactive: 0.106 | inactive: 0.017 | inactive: -0.14 | inactive: -0.019 | inactive: 0.003 | inactive: -0.048 | inactive: -0.093

Rewritten with tabs: part of the list above.
Target	log2 fold change (lapatinib)	log2 fold change (pictilisib)	log2 fold change (crizotinib)	log2 fold change [1]	log2 fold change (duvelisib)	log2 fold change (gandotinib)	log2 fold change (tozasertib)	log2 fold change (doramapimod)	log2 fold change (bafetinib)	log2 fold change [2]
MDH2 (UniProt P40926)	inactive: 0.025	inactive: -0.004	inactive: 0.024	inactive: 0.036	inactive: -0.002	inactive: -0.01	inactive: -0.003	inactive: 0.022	inactive: 0.134	inactive: -0.038
MED13 (UniProt Q9UHV7)	inactive: -0.053	inactive: -0.069	inactive: -0.04	inactive: 0.02	inactive: -0.005	inactive: -0.011	inactive: 0.013	inactive: -0.002	inactive: -0.03	inactive: -0.023
MED25 isoform 3 (UniProt Q71SY5)	inactive: 0.018	inactive: -0.05	inactive: -0.05	inactive: 0.053	inactive: 0.063	inactive: -0.095	inactive: -0.109	inactive: -0.042	inactive: -0.023	inactive: -0.052
MED16 (UniProt Q9Y2X0)	inactive: -0.014	inactive: -0.154	inactive: 0.03	inactive: 0.167	inactive: -0.027	active: -0.261	inactive: 0.012	inactive: 0.021	inactive: 0.051	inactive: -0.065
MATR3 (UniProt P43243)	inactive: 0.002	inactive: 0.009	inactive: -0.028	inactive: -0.136	inactive: 0.074	inactive: 0.017	inactive: -0.011	inactive: 0.153	inactive: -0.052	inactive: 0.07
